Measured values: patent US20060088899A1, “Combination chemotherapy with chlorotoxin” (priority 2002, published 2006)
Some of these results come from one statement about several compounds together.

System: PC3 prostate cancer cells
Assay: Binding of biotinylated 10-mer peptides, HRP-avidin detection
Set-up: species or system Human
Details: biotinylated 10-mers, cysteines replaced with serine

## peptide 5: biotinylated 10-mer, amino acid residues 23-32 of SEQ ID NO: 1, cysteines replaced with serine (KGRGKCYGPQ; biotinylated; cysteines replaced with serine; Chlorotoxin; listed as Leiurus quinquestriatus)
  binding to PC3 cells: bind
